PubChem BioAssay AID1159584, Peter MacCallum Cancer Centre | 2016

- Assay: 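Genes that CDH1-null MCF10A cells selectively depend on to survive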 (primary screen)
- System: human MCF10A breast epithelial cells, parental and CDH1-null
- Reagents: siRNA against human genes
- Detection: 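ATP luminescence (CellTiter-Glo) viability per line relative to mean mock wells over all plates, and the ratio of CDH1-null to parental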
- Reading the numbers: CDH1-null / parental viability ratio: higher = CDH1-null cells survive relatively better than parental; CDH1-null viability vs mock: higher = more viable CDH1-null cells
- Units: CDH1-null viability vs mock in fraction of mock
The whole screen tested about 18,000 reagents; below is a part drawn at random. Further read-outs or replicates are left out here. No sequences are given here. Not stated in the record: the amount of reagent, the time to read-out.

MBD1 (methyl-CpG binding domain protein 1)
- CDH1-null / parental viability ratio: 0.92
- CDH1-null viability vs mock: 0.83

CA5B (carbonic anhydrase 5B)
- CDH1-null / parental viability ratio: 0.84
- CDH1-null viability vs mock: 0.74

SPRYD4 (SPRY domain containing 4)
- CDH1-null / parental viability ratio: 1.06
- CDH1-null viability vs mock: 0.82

TFDP3 (transcription factor Dp family member 3)
- CDH1-null / parental viability ratio: 0.89
- CDH1-null viability vs mock: 0.89

CARD16 (caspase recruitment domain family member 16)
- CDH1-null / parental viability ratio: 0.81
- CDH1-null viability vs mock: 0.96

SLCO1B7
- CDH1-null / parental viability ratio: 0.78
- CDH1-null viability vs mock: 0.99

LRRC8C (leucine rich repeat containing 8 VRAC subunit C)
- CDH1-null / parental viability ratio: 0.71
- CDH1-null viability vs mock: 0.55

CTAG2 (cancer/testis antigen 2)
- CDH1-null / parental viability ratio: 0.83
- CDH1-null viability vs mock: 0.72

IL4R (interleukin 4 receptor)
- CDH1-null / parental viability ratio: 0.82
- CDH1-null viability vs mock: 0.66

FRMD5 (FERM domain containing 5)
- CDH1-null / parental viability ratio: 0.82
- CDH1-null viability vs mock: 0.69

SPTSSA (serine palmitoyltransferase small subunit A)
- CDH1-null / parental viability ratio: 1.16
- CDH1-null viability vs mock: 1.04

FNTB (farnesyltransferase, CAAX box, subunit beta)
- CDH1-null / parental viability ratio: 1.07
- CDH1-null viability vs mock: 0.94

AGO3 (argonaute RISC catalytic component 3)
- CDH1-null / parental viability ratio: 0.98
- CDH1-null viability vs mock: 0.97

NBPF15 (NBPF member 15)
- CDH1-null / parental viability ratio: 1.02
- CDH1-null viability vs mock: 0.61

RDH10 (retinol dehydrogenase 10)
- CDH1-null / parental viability ratio: 0.84
- CDH1-null viability vs mock: 0.79

HK3 (hexokinase 3)
- CDH1-null / parental viability ratio: 0.89
- CDH1-null viability vs mock: 0.93

NUDT16 (nudix hydrolase 16)
- CDH1-null / parental viability ratio: 0.71
- CDH1-null viability vs mock: 0.41

METTL18 (methyltransferase 18, RPL3 N3(tau)-histidine)
- CDH1-null / parental viability ratio: 0.47
- CDH1-null viability vs mock: 0.37

HINT1 (histidine triad nucleotide binding protein 1)
- CDH1-null / parental viability ratio: 1.1
- CDH1-null viability vs mock: 0.78

COX6C (cytochrome c oxidase subunit 6C)
- CDH1-null / parental viability ratio: 1.05
- CDH1-null viability vs mock: 0.87

PIH1D1 (PIH1 domain containing 1)
- CDH1-null / parental viability ratio: 1.25
- CDH1-null viability vs mock: 0.75

SLC39A2
- CDH1-null / parental viability ratio: 1.03
- CDH1-null viability vs mock: 0.64

NELFE (negative elongation factor complex member E)
- CDH1-null / parental viability ratio: 0.83
- CDH1-null viability vs mock: 0.55

ZNF266 (zinc finger protein 266)
- CDH1-null / parental viability ratio: 0.88
- CDH1-null viability vs mock: 0.59

PDCL (phosducin like)
- CDH1-null / parental viability ratio: 1.07
- CDH1-null viability vs mock: 0.88

AZIN2 (antizyme inhibitor 2)
- CDH1-null / parental viability ratio: 1.03
- CDH1-null viability vs mock: 1.25

TRIM14 (tripartite motif containing 14)
- CDH1-null / parental viability ratio: 0.94
- CDH1-null viability vs mock: 0.96

MAEA (macrophage erythroblast attacher, E3 ubiquitin ligase)
- CDH1-null / parental viability ratio: 1.34
- CDH1-null viability vs mock: 0.99

WNT3A (Wnt family member 3A)
- CDH1-null / parental viability ratio: 1.19
- CDH1-null viability vs mock: 1.26

ATP2C2 (ATPase secretory pathway Ca2+ transporting 2)
- CDH1-null / parental viability ratio: 0.96
- CDH1-null viability vs mock: 1.06

NWD1 (NACHT and WD repeat domain containing 1)
- CDH1-null / parental viability ratio: 0.89
- CDH1-null viability vs mock: 0.48

NR3C1 (nuclear receptor subfamily 3 group C member 1)
- CDH1-null / parental viability ratio: 0.91
- CDH1-null viability vs mock: 0.5

SERP1 (stress associated endoplasmic reticulum protein 1)
- CDH1-null / parental viability ratio: 1.31
- CDH1-null viability vs mock: 0.68

ATP6V1C1 (ATPase H+ transporting V1 subunit C1)
- CDH1-null / parental viability ratio: 0.92
- CDH1-null viability vs mock: 0.47

PLEKHA3 (pleckstrin homology domain containing A3)
- CDH1-null / parental viability ratio: 1.13
- CDH1-null viability vs mock: 1.08

Quoted from the entries so far (2 entries):
CARD16 (caspase recruitment domain family member 16)
- CDH1-null / parental viability ratio: 0.81
- CDH1-null viability vs mock: 0.96

SLCO1B7
- CDH1-null / parental viability ratio: 0.78
- CDH1-null viability vs mock: 0.99
